# Test results: the supplement of paper PMC3334620
# In all, about 33,000 sequences were measured (“E-score (-0.5 to 0.5)”: median about -0.0014, highest 2% from about 0.25 on). This is one part of the list.
# Molecular target: T1, Cad1 (UniProt P24813)
# T1 sequence: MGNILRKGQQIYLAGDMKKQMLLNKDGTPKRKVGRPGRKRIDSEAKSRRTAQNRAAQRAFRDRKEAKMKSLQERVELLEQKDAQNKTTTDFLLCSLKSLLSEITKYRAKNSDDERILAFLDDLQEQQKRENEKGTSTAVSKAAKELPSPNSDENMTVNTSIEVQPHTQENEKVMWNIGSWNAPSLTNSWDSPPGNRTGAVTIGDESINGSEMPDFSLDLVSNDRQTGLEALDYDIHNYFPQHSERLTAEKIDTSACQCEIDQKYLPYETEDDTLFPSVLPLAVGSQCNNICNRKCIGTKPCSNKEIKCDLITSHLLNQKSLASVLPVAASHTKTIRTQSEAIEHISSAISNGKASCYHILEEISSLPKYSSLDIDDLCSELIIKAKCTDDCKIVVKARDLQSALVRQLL
# Test: PBM E-score (8-mer binding enrichment) (E-score (-0.5 to 0.5)); higher = stronger / more preferred TF binding
# Details: protein concentration: 100 nM; construct: GST-full length
# Method in brief: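 Detection of bound protein used fluorescent anti-GST, with scans normalised by masliner. The proteins were GST-tagged yeast transcription factors applied at about 100-200 nM to universal all-10-mer Agilent arrays made double-stranded by primer extension. Each ungapped eight-base word, pooled with its reverse complement, was scored with an E-score from the Universal PBM Analysis Suite.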
row,Sequence,PBM E-score
1,GGTGTTAA,0.0749
2,GCCGGTCA,0.0179
3,ATCATGCA,-0.0367
4,CTCAATTC,0.066
5,CTCACGAG,-0.18
6,AGAGGTTC,-0.0178
7,CACAGCAG,-0.034
8,ACGGGAGC,-0.0379
9,ATAAGGAC,0.00628
10,CAACGGTA,-0.144
11,ACACGTGC,-0.0408
12,ATTATCAC,0.151
13,TATCTTAA,0.108
14,AATACGTA,0.107
15,CCAGATGA,-0.131
16,TAGGTCCA,-0.0222
17,CTGCGTAC,-0.0909
18,CCCAAGCC,-0.183
19,CAGCCACA,0.0992
20,AATCGATT,0.198
21,CTGGCACC,-0.164
22,CATGAACG,0.0355
23,AGTCTCAC,-0.0748
24,GGGGGCGA,-0.408
25,GCGAAACC,0.0968

row,Sequence,PBM E-score
1,CAGCTTGG,0.113
2,ACGGGTAA,-0.0345
3,GCATGGCA,0.157
4,CACCGCAC,-0.119
5,CCGAGAGC,-0.239
6,CTAACCTC,-0.0332
7,AGGCCCAT,-0.194
8,GAGGCCCC,-0.328
9,AAAGGAAC,0.13
10,TCTATAGA,-0.146
11,GCGCCCAA,0.143
12,AAAGGTTA,0.00027
13,ACCGCCGC,-0.092
14,ATTAGCAA,0.304
15,AAAAGCAG,0.0568
16,GGTGATAC,-0.0113
17,ACCGCGTC,0.107
18,TATCGTAA,0.234
19,CCAGGTAC,-0.0915
20,AACCTGCC,-0.164
21,CGGAGAAA,-0.0643
22,CAGCAGAC,0.181
23,CAGCGCCG,-0.112
24,CCCCTTCG,-0.236
25,GCACATAA,0.119

row,Sequence,PBM E-score
1,CCAGGTAA,-0.00637
2,AACTAATA,0.351
3,CCGTGTCC,0.00711
4,ACGTATCA,0.0975
5,AAGGTTCG,0.0498
6,AGATCAAG,0.112
7,GTTGGCAA,-0.0136
8,TAGAGTAA,0.0548
9,CAAAGTCC,-0.0271
10,TATGTGAA,0.0732
11,GCCTAACC,-0.0537
12,CGCTAGGA,0.0288
13,ACCTGCGT,-0.12
14,CGCATACG,0.00273
15,CCTTAAGG,-0.0719
16,ATCAGTCC,-0.403
17,GGGTTGAA,-0.0832
18,GTGGCCAA,0.125
19,GGCCTTTA,-0.0944
20,GAAGTAGC,0.0122
21,AACCACAT,0.0876
22,GATGGGGA,-0.0576
23,AAGGGACG,-0.195
24,TAAAGGCA,-0.0183
25,ACAAAAGT,0.0645

# Already shown: entries from further up.
row,Sequence,PBM E-score
10,TCTATAGA,-0.146
11,GCGCCCAA,0.143
12,AAAGGTTA,0.00027
13,ACCGCCGC,-0.092
14,ATTAGCAA,0.304
15,AAAAGCAG,0.0568
16,GGTGATAC,-0.0113
17,ACCGCGTC,0.107
18,TATCGTAA,0.234
19,CCAGGTAC,-0.0915
20,AACCTGCC,-0.164
21,CGGAGAAA,-0.0643
22,CAGCAGAC,0.181
23,CAGCGCCG,-0.112
24,CCCCTTCG,-0.236
25,GCACATAA,0.119
1,CCAGGTAA,-0.00637
2,AACTAATA,0.351
3,CCGTGTCC,0.00711
4,ACGTATCA,0.0975
5,AAGGTTCG,0.0498
6,AGATCAAG,0.112
7,GTTGGCAA,-0.0136
8,TAGAGTAA,0.0548
9,CAAAGTCC,-0.0271
10,TATGTGAA,0.0732
11,GCCTAACC,-0.0537
12,CGCTAGGA,0.0288
13,ACCTGCGT,-0.12
14,CGCATACG,0.00273
15,CCTTAAGG,-0.0719

# More records follow.

row,Sequence,PBM E-score
1,GGGAATCA,-0.00933
2,CAAAGCCG,0.161
3,ACAAAATC,-0.0535
4,ACTTGATG,0.0397
5,CGAGTAGA,-0.107
6,CACGATCC,0.0321
7,CGGCACTC,-0.11
8,ATTCAGAA,0.177
9,AGAGCTAC,-0.0927
10,CCGAAGGA,-0.088
11,CTAATTAG,0.41
12,AGGGGCCC,-0.152
13,GCACAAGC,-0.109
14,ATGTAAAT,0.0692
15,AAATGATA,0.214
16,TGATAGCA,0.154
17,CTGTCCGC,0.0711
18,AGCGGATG,-0.0114
19,ATACACGG,-0.0547
20,GACTTTCA,0.0787
21,GACAACCC,-0.167
22,CTTATGTC,0.0384
23,CGGTTCCC,0.0476
24,CTCCAGAC,-0.147
25,GGGACAAA,0.0282

row,Sequence,PBM E-score
1,TAGGTTAA,-0.1
2,CAACCGCC,-0.23
3,TCCGTTAA,0.132
4,CCGAGACA,-0.0426
5,CCGTATAC,0.00374
6,ATCCGGTG,0.121
7,CATGGCCC,-0.0799
8,AAGCGCTT,0.421
9,CTATAGCC,-0.282
10,CGGTGCAC,0.00179
11,ACTATTCA,0.185
12,AGAAAACC,0.0779
13,GGAATACC,-0.0063
14,GCTATTAA,0.202
15,CCCGGTCA,-0.128
16,GCACATGA,-0.143
17,GTTGTCAA,-0.019
18,ACCATTAG,0.0809
19,GTAATACA,0.239
20,ATATTGAC,-0.0375
21,AAGCCCCT,-0.169
22,TCACTTAA,-0.0152
23,ACTACGGC,0.0255
24,CGACGTTA,0.276
25,ACTTGACA,-0.0239

row,Sequence,PBM E-score
1,CTCTTTAC,-0.0276
2,CAAGCGGC,0.0583
3,GACGCGGC,0.0336
4,CGAAGGAG,-0.327
5,ACGAGTCG,-0.0856
6,CGTAACAA,0.0611
7,ATAAACTA,0.185
8,ACATGGCC,0.141
9,ACAACCTA,-0.0289
10,TTGACCAA,0.0548
11,ACAACCGT,-0.0336
12,GAGAGACC,-0.116
13,ACGTCCGC,0.186
14,ACTCGAAA,-0.0505
15,TACATCTA,0.16
16,CGCTTTAA,0.111
17,AATGTCAC,0.157
18,GTCTCTGA,0.0111
19,ACATAGCT,-0.0576
20,ATTCTGTC,0.0916
21,ATCACCCG,0.0288
22,CGATTGGC,0.0682
23,CTTCCCAA,0.0406
24,GATATAAC,0.0923
25,GTGGGGGA,-0.287

row,Sequence,PBM E-score
1,ATTATTTG,0.175
2,ACCTTTCG,-0.119
3,CTCGTCCC,-0.093
4,CTCCAGCC,-0.0999
5,TACGAGTA,0.208
6,GCCTAAGA,0.0132
7,GAGTCCGA,0.0402
8,GTGACTAA,0.37
9,ACCCACGA,-0.015
10,GAGGCTGA,-0.0204
11,ATATCTCA,0.244
12,GGCGAGTA,-0.0941
13,GGAGTCTA,-0.345
14,ATCCTTAA,-0.0702
15,AAGTAAGC,0.16
16,CCGAGGTC,0.12
17,TCTCCTCA,-0.196
18,AATTTGGT,0.106
19,ACCACCCA,-0.0492
20,ATGCTCCG,-0.114
21,AGACTTAC,-0.0165
22,TCCCGAAA,-0.218
